Test results: patent US12350364B2, “Lipid body compositions, products made therefrom, methods of making same, and methods of use” (Xylome Corporation, priority 2019, dated 2025)

Test: Lidocaine binding and partitioning into lipid bodies (UV 260 nm after 0.2 μm filtration)
Format: physicochemical
Experimental: In one example, the absorbance at 260 nm was used for determining Lidocaine binding and partitioning into lipid bodies using a UV spectrophotometry. Lipid bodies were cleared of excipients and antimicrobial preservative by undergoing a 1:10 wash in ethanol followed by rehydration in distilled water. […] Elimination of the background noise and minimizing dilutions improves the absorbance of UV-absorbing drugs such as lidocaine. The methodology used a lidocaine stock of 50 mg in 950 μL (50 mg/mL), which was used to load various concentrations of lidocaine into the lipid-body compositions of the invention.

Structure (SMILES): CCN(CC)CC(=O)Nc1c(C)cccc1C [Lidocaine]
- Lidocaine Bound to Lipid Bodies (500 μg Lidocaine in Salt (1M NaCl)): 28%
- Lidocaine Bound to Lipid Bodies (500 μg Lidocaine in Water): 16%
- Lidocaine Bound to Lipid Bodies (Control: 500 μg Lidocaine without Lipid Bodies and Filtered): 0%
